The target in assay [1] is T1, NF-YB1-MYC protein (wheat germ expression system) (rice) (UniProt Q6Z348).
T1 sequence: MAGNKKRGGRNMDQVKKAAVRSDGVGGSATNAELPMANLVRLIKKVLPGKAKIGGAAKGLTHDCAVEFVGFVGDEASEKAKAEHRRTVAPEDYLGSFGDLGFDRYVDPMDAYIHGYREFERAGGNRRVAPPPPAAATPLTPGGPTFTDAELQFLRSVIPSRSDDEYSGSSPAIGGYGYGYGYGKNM
In words: pull-down; purified recombinant MYC-NF-YB1 used to pull down Flag-tagged protein with amylose beads; proteins from the wheat germ expression system; immunoblot with anti-MYC and anti-Flag; only the target purified. On the technique in general: In western blotting, separated proteins are transferred to a membrane and probed.

Amino acid sequences for entries named in this document (tags omitted). A change or cut given only in a name is not applied to a line headed by its entry.
UniProt Q6F368: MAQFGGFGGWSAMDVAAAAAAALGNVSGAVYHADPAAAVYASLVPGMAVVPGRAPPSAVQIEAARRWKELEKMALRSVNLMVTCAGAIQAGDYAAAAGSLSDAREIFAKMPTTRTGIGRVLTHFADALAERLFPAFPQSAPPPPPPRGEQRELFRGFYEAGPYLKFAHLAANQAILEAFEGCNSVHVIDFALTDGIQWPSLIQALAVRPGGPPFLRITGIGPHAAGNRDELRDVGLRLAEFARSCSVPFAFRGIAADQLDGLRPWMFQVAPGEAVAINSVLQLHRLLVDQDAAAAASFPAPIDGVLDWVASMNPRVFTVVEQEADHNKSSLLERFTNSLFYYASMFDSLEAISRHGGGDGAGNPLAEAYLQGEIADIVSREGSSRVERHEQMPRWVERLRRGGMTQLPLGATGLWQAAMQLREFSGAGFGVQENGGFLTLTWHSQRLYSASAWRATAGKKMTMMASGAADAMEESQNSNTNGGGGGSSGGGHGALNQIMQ

The next assay addresses T2, NF-YB1-cLUC (rice) (UniProt Q6Z348).
T2 sequence: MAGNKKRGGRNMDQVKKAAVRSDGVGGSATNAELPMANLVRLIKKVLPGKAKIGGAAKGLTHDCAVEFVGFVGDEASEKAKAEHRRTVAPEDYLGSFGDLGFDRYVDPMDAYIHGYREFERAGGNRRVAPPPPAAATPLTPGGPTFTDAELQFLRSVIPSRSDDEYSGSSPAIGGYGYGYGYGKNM
Description: split reporter; split luciferase complementation assay (SLCA) in agroinfiltrated Nicotiana benthamiana leaves, about 36 h after infiltration, CCD camera.

For assay [2], the target named is SLRL2 section C3 (PFYRE domain), yeast two-hybrid fusion (rice). In words: two-hybrid; pairwise; pGADT7 (AD) and pGBKT7 (BD) fusions co-transformed into yeast AH109; selection on SD/-Leu-Trp-His with 3-AT (25 mM 3AT in Fig. 2a), 30 °C.
Assay [3] has as its target SLR1-like2 (SLRL2), BD fusion for yeast two-hybrid (rice) (UniProt Q6F368). Described as above.
For assay [4], the target named is SLRL2-Flag (rice protoplasts) (rice). In words: co-IP; SLRL2-Flag and NF-YB1-Myc transiently co-expressed in rice protoplasts; total protein precipitated with anti-Flag beads; blot with anti-Myc and anti-Flag.
A further assay deals with SLRL2-nYFP (rice). In words: split reporter; BiFC (split YFP) in rice protoplasts, overnight at 25 °C in the dark, confocal microscopy.
The next assay concerns the target SLRL2-nLUC (rice). In words: split reporter; split luciferase complementation assay (SLCA) in agroinfiltrated Nicotiana benthamiana leaves, about 36 h after infiltration, CCD camera.
The target of assay [5] is NF-YC12, yeast two-hybrid fusion (rice). In words: two-hybrid; pairwise; pGADT7 (AD) and pGBKT7 (BD) fusions co-transformed into yeast AH109; selection on SD/-Leu-Trp-His with 3-AT (25 mM 3AT in Fig. 2a), 30 °C.

These are yes or no findings as the source states them, for the method shown. For part of these data: A result given as binding can be weak or reduced; the word gives no strength. Where a sequence is shown, tags or fusion partners need not be part of it. For part of these data: In cells and extracts the contact can be indirect.

Consider bHLH144-Flag protein (rice), for which the binding result in assay [1] was “no binding”. For NF-YC12, split luciferase fusion (rice), the binding entry with NF-YB1-cLUC (rice) is “binds”.

B1: NF-YB1, AD fusion for yeast two-hybrid (protein, UniProt Q6Z348 1-186)
chain: MAGNKKRGGRNMDQVKKAAVRSDGVGGSATNAELPMANLVRLIKKVLPGKAKIGGAAKGLTHDCAVEFVGFVGDEASEKAKAEHRRTVAPEDYLGSFGDLGFDRYVDPMDAYIHGYREFERAGGNRRVAPPPPAAATPLTPGGPTFTDAELQFLRSVIPSRSDDEYSGSSPAIGGYGYGYGYGKNM
B1: the binding result in assay [2] and in assay [3] was “binds” each time.

B2: NF-YB1-MYC (rice protoplasts) (protein, UniProt Q6Z348 1-186)
chain: MAGNKKRGGRNMDQVKKAAVRSDGVGGSATNAELPMANLVRLIKKVLPGKAKIGGAAKGLTHDCAVEFVGFVGDEASEKAKAEHRRTVAPEDYLGSFGDLGFDRYVDPMDAYIHGYREFERAGGNRRVAPPPPAAATPLTPGGPTFTDAELQFLRSVIPSRSDDEYSGSSPAIGGYGYGYGYGKNM
On to B2, for which the binding entry in assay [4] is “binds”.

B3: NF-YB1-cYFP (protein, UniProt Q6Z348 1-186)
chain: MAGNKKRGGRNMDQVKKAAVRSDGVGGSATNAELPMANLVRLIKKVLPGKAKIGGAAKGLTHDCAVEFVGFVGDEASEKAKAEHRRTVAPEDYLGSFGDLGFDRYVDPMDAYIHGYREFERAGGNRRVAPPPPAAATPLTPGGPTFTDAELQFLRSVIPSRSDDEYSGSSPAIGGYGYGYGYGKNM
Consider B3, for which the binding entry in the assay with SLRL2-nYFP (rice) is “binds”.

B4: NF-YB1-cLUC (protein, UniProt Q6Z348 1-186)
chain: MAGNKKRGGRNMDQVKKAAVRSDGVGGSATNAELPMANLVRLIKKVLPGKAKIGGAAKGLTHDCAVEFVGFVGDEASEKAKAEHRRTVAPEDYLGSFGDLGFDRYVDPMDAYIHGYREFERAGGNRRVAPPPPAAATPLTPGGPTFTDAELQFLRSVIPSRSDDEYSGSSPAIGGYGYGYGYGKNM
In the case of B4, the binding result with SLRL2-nLUC (rice) is listed as “binds”.

B5: NF-YB1 fragment (32-186aa), yeast two-hybrid fusion (domain or fragment, UniProt Q6Z348 32-186)
chain: AELPMANLVRLIKKVLPGKAKIGGAAKGLTHDCAVEFVGFVGDEASEKAKAEHRRTVAPEDYLGSFGDLGFDRYVDPMDAYIHGYREFERAGGNRRVAPPPPAAATPLTPGGPTFTDAELQFLRSVIPSRSDDEYSGSSPAIGGYGYGYGYGKNM
Turning to B5, the binding result in assay [3] and in assay [5] was “binds” throughout.

The values above are taken from PMC11130328.
